Values quoted from earlier work as cited in patent US20060270650A1, “Combination therapy for the treatment of obesity” (priority 2005, published 2006).
Some entries share one result that the patent states for a list of compounds. Some ranges recur; such a range may be that of the whole group of compounds.

Settings: for weight loss of body weight for drug compared to placebo: monotherapy

Row | SMILES | weight loss of body weight for drug compared to placebo | reduce body weight (over a 6 month or a 1 year period)
1 | CCN[C@@H](C)Cc1cccc(C(F)(F)F)c1 [dexfenfluramine] | 5%-10% | –
2 | CC(C)CC(N(C)C)C1(c2ccc(Cl)cc2)CCC1 (stereo not shown) [sibutramine] | 5%-10% | less than 10%
3 | CC(C)(N)Cc1ccccc1 [phentermine] | 5%-10% | –
